According to patent US20140017223A1, “Pharmaceutical Compositions Comprising A Pancreatic Enzyme Preparation With Viral Infectivity Reduced Below A Significant Level And Methods Of Preparing And Using The Same” (Aptalis Pharma Canada Inc., priority 2010, published 2014):
At least one structure is not confirmed: it was looked up by name or label, or the drawing left a doubt.

Tests used:
Endogenous PPV = assay: Inactivation of endogenous PPV of PEP by BPL, chloroform/PEG extraction method (Example 4); type: cell-based, porcine parvovirus (PPV); conditions: 0.04% (v/v) BPL
Method: Pancrelipase powders from 2 different lots were each dissolved in 100 mM Tris, pH=8.3, at a concentration of 100 mg/ml. Two ml non-purified PPV viral stock (prepared using standard protocols (Arella et al., Physicichemical properties, production, and purification of parvoviruses. 1990, In Tijssen, P. (ed.), CRC handbook of parvoviruses. Boca Raton, Fla.: CRC Press, 11-30)) were added to 38 ml of the pancrelipase solution. The virus was mixed with the PEP using slow shaking at room temperature for one day. Aliquots were taken from the PPV-spiked pancrelipase stocks and each was incubated with different concentrations of BPL (available from Sigma-Aldrich, St. Louis, Mo.) (except the control) for 48 hours at room temperature (20° C.). The level of viral inactivation was measured by the titration of PPV infectivity using serial dilutions of 1,000 times or more since the titer of spiked virus was high. Determination of the FFID50 was performed using the fluorescence assay as described in the PPV FFID-infectivity assay of U.S. Patent Publication No. 2009/0226414.
The experiment described in Example 1 was repeated except no additional PPV was added. Like Example 3, the infectivity assay was performed after PEG/chloroform purification.

PPV = assay: Inactivation of PPV by BPL (30 min, 25° C.) measured from frozen and lyophilized samples (Example 10); type: cell-based, porcine parvovirus (PPV)
Method: 4.5 g pancrelipase (PEP) powder was dissolved in 44 ml ice cold 100 mM Tris (pH=8.3) by frequently mixing a 50-ml plastic tube that was kept on ice most of the time except when shaking. The dissolved sample was spiked with 1 ml (2×0.5 ml) PPV stock (prepared at the Institut National de la Recherche Scientifique, Québec, Canada using standard protocols (Arella et al., Physicichemical properties, production, and purification of parvoviruses. 1990, In Tijssen, P. (ed.), CRC handbook of parvoviruses. Boca Raton, Fla.: CRC Press, 11-30)) 10^7 FFID50/ml; see Example 8 and Table 8) and was mixed for another 10 minutes.
Three aliquots of the dissolved pancrelipase were transferred into tubes (A-C) and kept on ice while (A) no BPL—the control), (B) (0.4 vol % BPL), or (C) (0.8 vol % BPL) was added to them. After a brief mixing by a vortex machine, the tubes were incubated for 30 minutes at 25° C. At the end of the incubation, the tubes were transferred on to ice and immediately four aliquots were transferred from each experimental condition into new tubes (a-d). These tubes were placed into the mixture of acetone/dry ice for fast freezing. Later, the samples were stored at −80° C.
The experiment above was repeated two more times (altogether: experiments 1-3).
The frozen samples were lyophilized at −45° C. for two days, and the pancrelipase powders were kept at 4-10° C. […]

O=C1CCO1 [BPL, Beta-propiolactone]
PPV Titer reduction (Endogenous PPV; PEP # 1, endogenous PPV 3.20 × 10^3): 10^ FFID50/g | PPV Titer reduction (Endogenous PPV; PEP # 3, endogenous PPV 6.40 × 10^3): 10^ FFID50/g | Mean ± SD (PPV; 0.4% BPL): 5.74 ± 5.74 × FFID50/g | Mean ± SD (PPV; 0.8% BPL, 0* means under detection limit): < 0* ± 0 FFID50/g
